Paper PMC5870580

T1: Myc-tagged CACUL1 (human) (UniProt Q86Y37)
T1 sequence: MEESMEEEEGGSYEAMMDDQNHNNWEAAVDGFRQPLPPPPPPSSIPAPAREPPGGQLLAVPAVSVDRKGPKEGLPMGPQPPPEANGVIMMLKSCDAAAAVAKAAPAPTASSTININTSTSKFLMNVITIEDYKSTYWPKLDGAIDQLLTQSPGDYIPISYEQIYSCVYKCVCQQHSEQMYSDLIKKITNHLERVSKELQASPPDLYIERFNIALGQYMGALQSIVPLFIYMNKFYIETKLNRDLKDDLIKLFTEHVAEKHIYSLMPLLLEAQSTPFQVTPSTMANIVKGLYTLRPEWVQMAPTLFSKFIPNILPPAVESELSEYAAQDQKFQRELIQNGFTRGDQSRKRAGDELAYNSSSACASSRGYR

B1: GFP-CACUL1 (protein, UniProt Q86Y37 1-369)
chain: T1 sequence

What was measured:
[1] = molecular target: T1, Myc-tagged CACUL1 (human); assay: co-IP; HEK293 cells co-transfected with tagged constructs; lysates incubated overnight at 4 °C with the antibody against the tag (1:200), protein A/G agarose beads, western blot; for GFP-CACUL1 and Myc-PPARγ with and without rosiglitazone
[2] = molecular target: FLAG-tagged N-terminal region of SIRT1; assay: as above

Row | Molecule | binding [1] | binding [2]
1 | GFP-fused PPARγ-E/F domain (domain or fragment) | binds | –
2 | B1 | – | binds

These are yes or no findings as the source states them, for the method shown. In cells and extracts the contact can be indirect. Binding can be weak; no strength is given. Sequences can lack the tags named with a protein.
